Laboratory results taken from patent publication US12319690B2, “Selective CDK 4/6 inhibitor cancer therapeutics” (LUNELLA BIOTECH, INC., priority 2019, dated 2025).
Some entries share one result that the patent states for a list of compounds.

Tested on: hTERT-BJ1 (immortalized non-tumoral fibroblast cell line)
Assay: 2D-cell viability assay (Hoechst staining), hTERT-BJ1 monolayer
Assay type: cell-based, human
Source text: As used in the tables, “IC50 (MCF7 mammosphere)” refers to the half maximal inhibitory concentration in the 3D-mammosphere assay, using the ER+ breast cancer cell line, MCF7. The term “IC50 (MCF7 monolayer)” refers to the half maximal inhibitory concentration in the 2D-cell viability assay, using the ER+ breast cancer cell line, MCF7. The term “IC50 (BJ1 monolayer)” refers to the half maximal inhibitory concentration in the 2D-cell viability assay, using the immortalized non-tumoral fibroblast cell line, hTERT-BJ1. The term “SI (mammosphere/monolayer MCF7)” refers to the mammosphere selectivity index, a ratio between IC50 values comparing the biological activity in the 3D and 2D assays against MCF7. The term “SI (BJ1/MCF7 monolayer)” refers to the cancer selectivity index, a ratio between IC50 values comparing the biological activity in the cell viability assays against MCF7 and hTERT-BJ1. A Hoechst-based viability assay was used to characterize the selectivity of compounds according to the present approach, for the preferential targeting of cancer cells. Briefly, MCF7 cell monolayers were treated with a compound at concentrations ranging from 1 μM to 100 μM, for a period of one day. Cell viability was assessed using Hoechst 33342, a nuclear dye that stains DNA in live cells. The viability of normal human fibroblasts (hTERT-BJ1) treated with the compounds described herein was also assessed in parallel. Quantitation was performed with a plate-reader.

SMILES | non-toxic in the non-tumoral cell line hTERT-BJ1 up to the concentration [µM]
CCCCCCCCCCCCCC(=O)N1CCN(c2ccc(Nc3ncc4cc(C(=O)N(C)C)n(C5CCCC5)c4n3)nc2)CC1 [Compound [1C], 7-cyclopentyl-N,N-dimethyl-2-[[5-(4-tetradecanoylpiperazin-1-yl)-2-pyridyl]amino]pyrrolo[2,3-d]pyrimidine-6-carboxamide] | ≤ 90
CCCCCCCCCCCCCC(=O)N1CCN(c2ccc(Nc3ncc4c(C)c(C(C)=O)c(=O)n(C5CCCC5)c4n3)nc2)CC1 [Compound [2C], 6-acetyl-8-cyclopentyl-5-methyl-2-[[5-(4-tetradecanoylpiperazin-1-yl)-2-pyridyl]amino]pyrido[2,3-d]pyrimidin-7-one] | ≤ 90
CC(=O)c1c(C)c2cnc(Nc3ccc(N4CCNCC4)cn3)nc2n(C2CCCC2)c1=O [Palbociclib, 6-acetyl-8-cyclopentyl-5-methyl-2-(5-piperazin-1-yl-pyridin-2-ylamino)-8H-pyrido[2,3-d]pyrimidin-7-one] | ≤ 90
CN(C)C(=O)c1cc2cnc(Nc3ccc(N4CCNCC4)cn3)nc2n1C1CCCC1 [Ribociclib, 7-cyclopentyl-N,N-dimethyl-2-[(5-piperazin-1-ylpyridin-2-yl)amino]pyrrolo[2,3-d]pyrimidine-6-carboxamide] | ≤ 90
